In publication PMC6449874 one finds binding data, which are given here for eleven substances.

Results are given in words; binding and its absence hold for the method and conditions named. Binding seen in cells or lysates may run through a third protein. A result given as binding can be weak or reduced; the word gives no strength. For some of these results: Sequences can lack the tags named with a protein.

Holding throughout (assay): pull-down; LUMIER pulldown: one protein fused to ProtA, the other to Rluc, each single-expressed in HEK293TM cells; lysis buffer 20 mM Tris pH 7.5, 250 mM NaCl, 1.1% Triton X-100, 10 mM EDTA, 10 mM DTT; sheep anti-rabbit IgG-coated Dynabeads, 1 h on ice; Rluc on the beads as percent of input; +: >= 2.5%, w: 1.5%-2.5%, -: < 1.5%; two grades in each cell
The target in experiment [1] is T1, … TESTA GLABRA1 (TTG1), Arabidopsis thaliana (Arabidopsis thaliana) (UniProt Q9XGN1).
T1 sequence: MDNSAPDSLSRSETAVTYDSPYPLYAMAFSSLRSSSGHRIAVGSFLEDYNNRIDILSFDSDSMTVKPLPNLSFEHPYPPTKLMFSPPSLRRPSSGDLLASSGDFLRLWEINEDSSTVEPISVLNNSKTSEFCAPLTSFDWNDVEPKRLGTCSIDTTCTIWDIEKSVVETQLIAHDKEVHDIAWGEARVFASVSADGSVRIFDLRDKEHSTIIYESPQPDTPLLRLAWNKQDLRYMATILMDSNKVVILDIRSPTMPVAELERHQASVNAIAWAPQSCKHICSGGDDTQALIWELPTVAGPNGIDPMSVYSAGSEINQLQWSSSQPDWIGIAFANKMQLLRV

For experiment [2], the target named is T2, AtGL3 (Arabidopsis thaliana) (UniProt Q9FN69).
T2 sequence: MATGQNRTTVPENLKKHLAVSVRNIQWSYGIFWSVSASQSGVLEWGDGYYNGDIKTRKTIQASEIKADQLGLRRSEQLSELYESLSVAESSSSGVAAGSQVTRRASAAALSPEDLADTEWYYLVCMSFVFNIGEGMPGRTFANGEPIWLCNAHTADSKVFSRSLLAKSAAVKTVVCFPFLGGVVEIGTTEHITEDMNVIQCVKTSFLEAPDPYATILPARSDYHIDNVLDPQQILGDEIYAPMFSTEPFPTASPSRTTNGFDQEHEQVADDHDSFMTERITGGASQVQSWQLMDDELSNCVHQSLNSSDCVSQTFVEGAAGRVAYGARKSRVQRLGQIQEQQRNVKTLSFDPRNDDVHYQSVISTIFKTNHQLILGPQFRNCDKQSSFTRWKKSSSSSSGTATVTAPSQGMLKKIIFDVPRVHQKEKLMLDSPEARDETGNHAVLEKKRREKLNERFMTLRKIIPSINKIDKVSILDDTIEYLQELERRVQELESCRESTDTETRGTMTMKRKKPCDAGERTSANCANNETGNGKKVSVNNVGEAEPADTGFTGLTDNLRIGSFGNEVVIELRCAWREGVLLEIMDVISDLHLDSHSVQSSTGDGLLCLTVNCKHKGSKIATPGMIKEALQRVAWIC

In experiment [3] the target is T3, AtTT8 (Arabidopsis thaliana) (UniProt Q9FT81).
T3 sequence: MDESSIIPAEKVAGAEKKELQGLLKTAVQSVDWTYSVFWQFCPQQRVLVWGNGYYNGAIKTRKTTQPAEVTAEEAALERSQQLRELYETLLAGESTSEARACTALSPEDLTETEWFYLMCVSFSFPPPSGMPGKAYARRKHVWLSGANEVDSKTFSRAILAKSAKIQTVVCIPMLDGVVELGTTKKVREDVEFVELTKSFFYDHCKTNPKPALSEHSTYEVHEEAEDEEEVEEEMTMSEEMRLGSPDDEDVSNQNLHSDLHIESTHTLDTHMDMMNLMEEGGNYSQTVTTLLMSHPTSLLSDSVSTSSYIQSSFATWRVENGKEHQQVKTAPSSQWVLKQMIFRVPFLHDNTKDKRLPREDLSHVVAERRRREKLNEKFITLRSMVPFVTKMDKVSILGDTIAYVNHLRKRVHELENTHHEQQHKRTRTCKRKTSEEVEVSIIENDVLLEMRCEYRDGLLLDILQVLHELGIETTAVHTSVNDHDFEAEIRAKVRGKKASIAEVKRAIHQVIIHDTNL

Experiment [4] has as its target T4, AtEGL3 (Arabidopsis thaliana) (UniProt Q9CAD0).
T4 sequence: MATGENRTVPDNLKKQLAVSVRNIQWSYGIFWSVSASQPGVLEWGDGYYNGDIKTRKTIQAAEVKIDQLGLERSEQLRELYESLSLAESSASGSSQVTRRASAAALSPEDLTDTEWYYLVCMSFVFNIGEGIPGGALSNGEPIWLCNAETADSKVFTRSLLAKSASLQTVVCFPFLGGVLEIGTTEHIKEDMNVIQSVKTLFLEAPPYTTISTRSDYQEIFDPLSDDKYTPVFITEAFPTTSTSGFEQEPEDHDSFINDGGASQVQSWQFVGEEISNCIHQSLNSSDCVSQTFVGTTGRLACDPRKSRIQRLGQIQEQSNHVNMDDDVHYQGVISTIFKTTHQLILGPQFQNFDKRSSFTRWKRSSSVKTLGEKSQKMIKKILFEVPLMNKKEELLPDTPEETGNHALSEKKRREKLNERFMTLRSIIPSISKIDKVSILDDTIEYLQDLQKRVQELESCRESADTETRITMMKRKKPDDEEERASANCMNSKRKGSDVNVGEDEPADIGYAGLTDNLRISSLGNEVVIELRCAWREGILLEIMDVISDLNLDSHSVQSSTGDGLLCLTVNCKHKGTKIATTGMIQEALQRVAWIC

In experiment [5] the target is T5, AtMYC1 (Arabidopsis thaliana) (UniProt Q8W2F1).
T5 sequence: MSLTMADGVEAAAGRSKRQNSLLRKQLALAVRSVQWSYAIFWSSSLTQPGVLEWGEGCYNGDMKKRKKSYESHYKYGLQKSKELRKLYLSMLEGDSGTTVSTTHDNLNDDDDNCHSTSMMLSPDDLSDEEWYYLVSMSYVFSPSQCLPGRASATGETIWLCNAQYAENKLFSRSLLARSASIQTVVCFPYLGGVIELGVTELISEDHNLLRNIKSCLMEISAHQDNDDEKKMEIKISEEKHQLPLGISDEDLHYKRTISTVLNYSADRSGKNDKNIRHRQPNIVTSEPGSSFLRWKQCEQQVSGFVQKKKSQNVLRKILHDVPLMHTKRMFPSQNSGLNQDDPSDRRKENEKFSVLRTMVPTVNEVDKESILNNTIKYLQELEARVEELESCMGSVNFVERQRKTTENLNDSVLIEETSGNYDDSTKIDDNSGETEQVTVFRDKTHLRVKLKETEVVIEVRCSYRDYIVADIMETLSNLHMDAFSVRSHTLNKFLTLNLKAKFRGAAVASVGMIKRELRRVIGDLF

Take AaMYB23 (Arabis alpina): the binding entry is reported as “no binding” in experiment [1]; “binds” in experiment [2]; “binds” in experiment [3]; “binds” in experiment [4]; “binds” in experiment [5].

Take AaWER (Arabis alpina): the binding result is given as “no binding” in experiment [1]; “binds” in experiment [2]; “binds” in experiment [3]; “binds” in experiment [4]; “binds” in experiment [5].

Take AaGL1 (Arabis alpina): the binding result is “no binding” in experiment [1]; “binds” in experiment [2]; “binds” in experiment [3]; “binds” in experiment [4]; “binds” in experiment [5].

Regarding ZmP1 (Zea mays), the binding entry in experiment [1], in experiment [2], in experiment [3], in experiment [4] and in experiment [5] was “no binding” in each case.

Consider GhRLC1 (Gossypium hirsutum), for which the binding result in experiment [1] is on record as “no binding”; in experiment [2], “binds”; in experiment [3], “binds”; in experiment [4], “binds”; in experiment [5] it was “binds”.

For the substance PhAN2 (Petunia hybrida), the binding result is “no binding” in experiment [1]; “binds” in experiment [2]; “binds” in experiment [3]; “binds” in experiment [4]; “binds” in experiment [5].

Regarding ZmPL (Zea mays), the binding entry in experiment [1] is on record as “binds weakly”; in experiment [2], “binds”; in experiment [3] it was “binds”; in experiment [4] it was “binds”; in experiment [5] it was “binds”.

With GhMYB3 (Gossypium hirsutum), the binding entry is given as “no binding” in experiment [1]; “binds” in experiment [2]; “binds” in experiment [3]; “binds” in experiment [4]; “binds” in experiment [5].

GhMYB25 (Gossypium hirsutum): the binding entry in experiment [1], in experiment [2], in experiment [3], in experiment [4] and in experiment [5] was “no binding” in each case.

Turning to GhMYB2 (Gossypium hirsutum), the binding result is reported as “no binding” in experiment [1]; “binds” in experiment [2]; “binds” in experiment [3]; “binds” in experiment [4]; “binds” in experiment [5].

On to AaPAPL (Arabis alpina), for which the binding result in experiment [1] is listed as “no binding”; in experiment [2] it was “binds”; in experiment [3], “binds”; in experiment [4], “binds”; in experiment [5], “binds”.
